## Results of single-concentration screens

T. brucei: 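Whole-parasite assay of Trypanosoma brucei over 72 hours; the read-out is not stated. Compounds at 30 µM. Direction is inferred from retests: higher values go with stronger inhibition. Values scatter widely below zero; nearly all retest evidence comes from the higher of the two concentrations used. Of about 64,000 compounds tested this way, about 940 (1.5%) reached 50% or more in at least one test.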
Leishmania in macrophages: 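Cell assay of Leishmania donovani living inside macrophages; the read-out is not stated. Compounds at 30 µM. Direction is inferred from retests: higher values go with stronger inhibition. Size under these conditions: about 69,000 compounds, about 1,000 of them at 50% or above in at least one test.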

Results are given as percent effect.
The controls that fix the scale are not given in the record; negative values are as filed.
Compounds were drawn at random from those tested, without regard to their results.
Two or more numbers in one place are separate tests of the same structure; such repeats can differ widely.
A dash means the value is not listed here; it may have been measured.

structure,T. brucei,Leishmania in macrophages
O=C1C(CS(=O)(=O)Nc2ccccc2)=NC(=O)n2cccc21,-37.06%,1.991%
Cc1ccc(F)c(N2CCCC(Nc3nccn4cnnc34)C2=O)c1 (stereo unspecified),-20.06%,27.74%
CCCc1nc(C)cc(NCCc2nnc(N)s2)n1,-8.078%,40.87%
O=C(c1ncn2c1CNS(=O)(=O)c1ccccc1-2)N1CCCCC1,-,0.9991%
CC(SCC(=O)NC(N)=O)c1ccccc1F (stereo unspecified),-14.51%,20.13%
Cn1cc(S(=O)(=O)NCC2CCN(C(=O)Oc3ccccc3)CC2)cn1,-8.69%,-7.281%
O=C1N(CCCc2ccccc2)CCCC1(O)CNCC1CCCCC1 (stereo unspecified),-61.1%,36.42%
Cc1c(CCC(=O)Nc2ccc(Br)cn2)cnn1C,-19.58%,23.14%
O=C(c1cscn1)N1CCC(Cc2cnc3[nH]ccc3c2)C1 (stereo unspecified),0.8781%,9.097%
CC(C)NC(=O)C[C@@H]1CCNC[C@@H]1Cc1cc(-c2ccccc2)on1,-2.671%,-4.938%
Cc1cc(C2CCCN2C(=O)NCc2cccnc2N(C)C)on1 (stereo unspecified),-11.03%,-28.27%
Cc1nc(C)n(CC2CCCN(CC(=O)Nc3cccnc3)C2)n1 (stereo unspecified),15.35%,59.36%
CC(C)c1cc(NC(=O)CN2CCc3c(nc(C(C)C)n3C)C2)on1,14.83%,38.27%
COc1c(C2CCCN2C(=O)c2ccoc2C)c(C)nn1C (stereo unspecified),-29.21%,0.8433%
Cc1nc(NC2CCCC2)cc(C2CCN2C(=O)c2cccnc2)n1 (stereo unspecified),9.192%,0.3764%
CCOCCN1CCN(CCc2nc3ccccc3c(=O)[nH]2)CC1,6.888%,8.764%
O=C(O)C(F)(F)F.O=C(O)C(F)(F)F.O=C1NCC[C@]12CN(Cc1cccnc1)C[C@H]2c1ccccc1,-88.71%,26.95%
O=C(CSc1nnc(N2CCOCC2)s1)NCc1cccs1,-25.64%,26.19%
N#Cc1ccccc1OCCN1CCCCC1Cn1cncn1 (stereo unspecified),8.19%,34.86%
NC(=O)N1CCC2(CC1)CN(Cc1cccnc1)C(=O)CO2.O=C(O)C(F)(F)F,14.08%,42.82%
O=C(O)C1CN(c2cncc(Cc3ccccc3)n2)C1,-16.99%,57.22%
CCN1CCC(NC(=O)CN2CCCC2Cn2nc(C)nc2C)CC1 (stereo unspecified),-5.631%,15.08%
O=C(c1cnn2c1OCCC2)N1CCN(C/C=C/c2ccccc2)CC1,37.76%,32.11%
O=C1CCc2cc(S(=O)(=O)NC(=O)c3ccc4c(c3)OCO4)ccc2N1,-28.91%,-18.12%
[H][C@]12CN(C(=O)C3CC3)CCN1C(=O)N(CCOC)C2,-14.65%,-29.27%
Cc1cnc(CN2CCCC(c3cc(C(F)(F)F)[nH]n3)C2)cn1 (stereo unspecified),3.686%,-12.58%
CCOCCC(=O)NC1(c2cccc(Br)c2)CC1,-43.45%,16.41%
O=C1CCCCN1CCc1nc(C2(c3ccc(F)cc3)CCOC2)no1 (stereo unspecified),-25.12%,20.18%
Cc1nc(Nc2nccs2)cc(C2CCCN2)n1.Cl (stereo unspecified),99.83%,34.17%
CCCS(=O)(=O)N1Cc2nccn2CC(Cn2cncn2)C1 (stereo unspecified),-37.68%,-2.86%
N#Cc1cccnc1NCCNC(=O)N1CCSCC1,-136.1%,-4.771%
O=C(O)C(=O)O.c1csc(-c2noc(C3CN(Cc4ccc5c(c4)CCO5)C3)n2)c1,8.221%,15.5% & -2.164%
Cc1c(F)cccc1S(=O)(=O)N(C)CC(C)O (stereo unspecified),-40.09%,18.94%
CN(C)S(=O)(=O)N1CCC(c2ccncn2)CC1,-11.9%,8.564%
COCCOc1ccc(NC(=O)C2CCC2)cn1,-23.08%,15.09%
CCC(CO)NC(=O)Cc1ccc(NC(=O)CC2=CCCCC2)cc1 (stereo unspecified),-16.61%,-35.1%
C1CN(CCN2CCOCC2)CCN1,-4.33%,26.6%
CC(C)N(C)Cc1cn2c(n1)CN(C(=O)Cc1ccsc1)CC2.O=C(O)C(F)(F)F,-69.49%,-14.38%
CCC1c2cccn2CCN1C(=O)c1ccc2nonc2c1 (stereo unspecified),-27.29%,-17.46%
CC(C)n1cc(-c2c(C#N)c(N)nc3c2COCC3)cn1,-50.67%,-4.658%
COc1ccc(CN2CCOC[C@H](OCC(=O)N(C)C)C2)cc1,-20.62%,10.35%
CCC(C#N)NC(=O)c1cc(Br)c2c(c1)OCCO2 (stereo unspecified),0.3114%,-5.036%

The values are deposited in ChEMBL (CHEMBL3988442, “University of Dundee, Small-Polar-MMV Screening Library” (2021)).